Assay results taken from PMC11357992, “Non-invasive mapping of systemic neutrophil dynamics upon cardiovascular injury” (Nature Cardiovascular Research, 2023).

Tests used:
[1] = molecular target: pig CD177 on pig neutrophils (pig (endogenous in neutrophils)); experiment: flow cytometry on cells; immune cells isolated from blood (human, pig, rat, mouse), 1 × 10^5 cells a well, free fluorescent peptide 1 µg ml^−1 for 20 min at 4 °C; human neutrophils co-stained with anti-CD177 monoclonal antibody; only the binder purified
[2] = molecular target: rat CD177 on rat neutrophils (rat (endogenous in neutrophils)); experiment: as above

DLVTSKLQVGGGC (carboxyfluorescein on the N-terminus; C-terminal cysteine with free sulfhydryl) [human neutrophil-specific peptide (hNP), free peptide]
binding [1]: no binding (tested: 1 µg ml^−1)
binding [2]: no binding (tested: 1 µg ml^−1)

No constants are given. Whether binding was seen depends on the method and setting.
